According to PMC8803112:
Where two headings read alike, the source gives them in different places. No constants are given. Whether binding was seen depends on the method and setting.

Amino acid sequences for entries named in this document (tags omitted).
UniProt P04003: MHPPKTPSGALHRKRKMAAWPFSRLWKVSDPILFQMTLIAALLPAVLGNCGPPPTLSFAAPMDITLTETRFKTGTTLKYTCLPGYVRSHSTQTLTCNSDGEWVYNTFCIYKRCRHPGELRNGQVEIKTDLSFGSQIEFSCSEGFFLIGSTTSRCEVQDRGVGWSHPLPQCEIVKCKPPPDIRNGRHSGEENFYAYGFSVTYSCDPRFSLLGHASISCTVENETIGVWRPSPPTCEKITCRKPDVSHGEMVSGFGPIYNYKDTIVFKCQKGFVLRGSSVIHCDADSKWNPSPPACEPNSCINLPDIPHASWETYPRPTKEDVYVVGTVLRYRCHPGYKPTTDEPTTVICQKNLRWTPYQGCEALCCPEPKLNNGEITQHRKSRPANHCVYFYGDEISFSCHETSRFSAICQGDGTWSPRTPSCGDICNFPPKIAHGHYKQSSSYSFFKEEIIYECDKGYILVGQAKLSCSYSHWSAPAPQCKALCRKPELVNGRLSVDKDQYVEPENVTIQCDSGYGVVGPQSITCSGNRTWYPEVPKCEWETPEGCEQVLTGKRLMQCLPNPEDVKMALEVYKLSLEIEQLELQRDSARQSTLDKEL

B1: complement protein C2, recombinant protein expressed in HEK293 (protein, UniProt P06681 21-752)
chain: APSCPQNVNISGGTFTLSHGWAPGSLLTYSCPQGLYPSPASRLCKSSGQWQTPGATRSLSKAVCKPVRCPAPVSFENGIYTPRLGSYPVGGNVSFECEDGFILRGSPVRQCRPNGMWDGETAVCDNGAGHCPNPGISLGAVRTGFRFGHGDKVRYRCSSNLVLTGSSERECQGNGVWSGTEPICRQPYSYDFPEDVAPALGTSFSHMLGATNPTQKTKESLGRKIQIQRSGHLNLYLLLDCSQSVSENDFLIFKESASLMVDRIFSFEINVSVAIITFASEPKVLMSVLNDNSRDMTEVISSLENANYKDHENGTGTNTYAALNSVYLMMNNQMRLLGMETMAWQEIRHAIILLTDGKSNMGGSPKTAVDHIREILNINQKRNDYLDIYAIGVGKLDVDWRELNELGSKKDGERHAFILQDTKALHQVFEHMLDVSKLTDTICGVGNMSANASDQERTPWHVTIKPKSQETCRGALISDQWVLTAAHCFRDGNDHSLWRVNVGDPKSQWGKEFLIEKAVISPGFDVFAKKNQGILEFYGDDIALLKLAQKVKMSTHARPICLPCTMEANLALRRPQGSTCRDHENELLNKQSVPAHFVALNGSKLNINLKMGVEWTSCAEVVSQEKTMFPNLTDVREVVTDQFLCSGTQEDESPCKGESGGAVFLERRFRFFQVGLVSWGLYNPCLGSADKNSRKRAPRSKVPPPRDFHINLFRMQPWLRQHLGDVLNFLPL

Key:
[1] = target: complement evasion factor (CEF), recombinant Spy0136 (Streptococcus pyogenes SF370) (UniProt Q9A1R6); test: ELISA; rCEF coated at 1 µg/well; complement proteins at 0, 0.25, 0.5, 1.0, 1.5 and 2 µg/well in 50 mM NaCl, 20 mM Tris-HCl pH 7.4, 1 mM CaCl2, 2 h at 37°C; detected with specific primary antibodies and HRP anti-rabbit IgG; proteins untreated or treated with PNGase F; both purified
[2] = target: complement evasion factor (CEF), recombinant Spy0136 (Streptococcus pyogenes SF370) (UniProt Q9A1R6); test: as above; remark: listed apart in the source

| Molecule | binding [1] | binding [2] |
| --- | --- | --- |
| C4BPA, recombinant protein expressed from a wheat germ in-vitro system (from UniProt P04003 1-597) | no binding (tested: 2 μg/well) |  |
| B1 |  | no binding (tested: 2 μg/well) |
